Values quoted from earlier work as cited in patent publication US9771376B2 (GENENTECH, INC., priority 2000, dated 2017).

Settings: administered topically (Lidoderm patch); cited from earlier work

In the case of `CCN(CC)CC(=O)Nc1c(C)cccc1C` [lidocaine], the plasma concentrations is listed as “about 1 μM”.
